Measured values: patent US20070287665A1 (SOCIETE DE CONSEILS DE RECHERCHES ET D APPLICATIONS …, published 2007)
No constants are given. Whether binding was seen depends on the method and setting. Some results given as binding are weak or reduced against the parent protein; the word gives no strength. Bridge positions count the residues as written; N and C are the ends. Ends that are not written are not given here.

Target: T1, U-II receptors (rat thoracic aorta tissue) (rat) (UniProt P49684)
T1 sequence (looked up): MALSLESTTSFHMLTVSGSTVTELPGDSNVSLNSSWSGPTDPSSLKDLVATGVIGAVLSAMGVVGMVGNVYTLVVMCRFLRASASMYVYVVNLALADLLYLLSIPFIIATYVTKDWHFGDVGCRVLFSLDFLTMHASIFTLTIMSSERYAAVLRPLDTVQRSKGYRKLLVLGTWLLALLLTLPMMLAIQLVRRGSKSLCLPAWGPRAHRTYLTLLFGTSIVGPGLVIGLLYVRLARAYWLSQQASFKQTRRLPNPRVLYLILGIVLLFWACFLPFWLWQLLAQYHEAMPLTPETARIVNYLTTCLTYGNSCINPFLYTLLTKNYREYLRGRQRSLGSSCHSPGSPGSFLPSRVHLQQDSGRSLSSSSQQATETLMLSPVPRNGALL
Test: binding to rat aorta tissue; method not described

- binding: binds
Binder: DCFWKYCV (cyclic via Cys2-Cys7 (c[...]); C-terminal free acid (-OH)) [Asp-c[Cys-Phe-Trp-Lys-Tyr-Cys]-Val-OH]
